Measured values taken from the supplement of paper PMC10849652.
This is one part of the list. Residues, ends and D or L forms follow the SMILES beside them. *: point of attachment. Cbz = O=C(OCc1ccccc1)*

The chains behind the UniProt entries cited, without tags or fusion partners. Where a name states a change or a piece, a line headed by the entry shows the natural chain unless it says otherwise.
UniProt Q8IWA5: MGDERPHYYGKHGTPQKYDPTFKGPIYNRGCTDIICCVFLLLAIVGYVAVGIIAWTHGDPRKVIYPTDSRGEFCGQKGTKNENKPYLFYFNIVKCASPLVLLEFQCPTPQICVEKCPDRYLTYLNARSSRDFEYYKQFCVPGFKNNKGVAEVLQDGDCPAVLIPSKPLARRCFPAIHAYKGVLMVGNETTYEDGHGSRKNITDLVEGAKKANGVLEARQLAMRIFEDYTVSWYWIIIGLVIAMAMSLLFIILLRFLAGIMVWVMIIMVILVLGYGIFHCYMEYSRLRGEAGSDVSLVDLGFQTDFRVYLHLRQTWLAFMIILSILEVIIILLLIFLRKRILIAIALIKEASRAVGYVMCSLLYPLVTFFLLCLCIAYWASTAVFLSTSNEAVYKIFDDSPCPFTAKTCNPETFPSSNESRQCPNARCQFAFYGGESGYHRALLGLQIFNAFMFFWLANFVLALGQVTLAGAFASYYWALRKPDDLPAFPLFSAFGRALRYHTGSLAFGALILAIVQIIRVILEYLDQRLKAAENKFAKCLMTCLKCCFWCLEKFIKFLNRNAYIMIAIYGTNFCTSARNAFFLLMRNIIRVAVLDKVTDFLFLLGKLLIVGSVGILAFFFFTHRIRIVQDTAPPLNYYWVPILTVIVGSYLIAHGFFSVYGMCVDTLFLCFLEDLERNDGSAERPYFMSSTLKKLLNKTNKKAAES
UniProt Q6YBV0: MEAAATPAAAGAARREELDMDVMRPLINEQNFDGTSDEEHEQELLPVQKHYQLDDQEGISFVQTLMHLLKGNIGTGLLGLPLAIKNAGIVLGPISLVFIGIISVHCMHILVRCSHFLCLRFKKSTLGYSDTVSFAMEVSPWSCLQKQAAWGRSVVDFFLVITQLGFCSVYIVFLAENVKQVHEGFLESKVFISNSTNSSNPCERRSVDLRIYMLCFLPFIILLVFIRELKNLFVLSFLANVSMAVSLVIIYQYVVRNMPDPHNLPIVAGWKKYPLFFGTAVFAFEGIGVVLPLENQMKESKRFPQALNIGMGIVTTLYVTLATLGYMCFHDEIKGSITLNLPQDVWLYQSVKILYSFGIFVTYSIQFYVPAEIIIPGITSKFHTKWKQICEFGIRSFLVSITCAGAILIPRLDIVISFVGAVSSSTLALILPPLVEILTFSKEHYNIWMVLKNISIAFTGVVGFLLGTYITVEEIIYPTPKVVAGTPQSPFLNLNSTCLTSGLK
UniProt Q9UGH3: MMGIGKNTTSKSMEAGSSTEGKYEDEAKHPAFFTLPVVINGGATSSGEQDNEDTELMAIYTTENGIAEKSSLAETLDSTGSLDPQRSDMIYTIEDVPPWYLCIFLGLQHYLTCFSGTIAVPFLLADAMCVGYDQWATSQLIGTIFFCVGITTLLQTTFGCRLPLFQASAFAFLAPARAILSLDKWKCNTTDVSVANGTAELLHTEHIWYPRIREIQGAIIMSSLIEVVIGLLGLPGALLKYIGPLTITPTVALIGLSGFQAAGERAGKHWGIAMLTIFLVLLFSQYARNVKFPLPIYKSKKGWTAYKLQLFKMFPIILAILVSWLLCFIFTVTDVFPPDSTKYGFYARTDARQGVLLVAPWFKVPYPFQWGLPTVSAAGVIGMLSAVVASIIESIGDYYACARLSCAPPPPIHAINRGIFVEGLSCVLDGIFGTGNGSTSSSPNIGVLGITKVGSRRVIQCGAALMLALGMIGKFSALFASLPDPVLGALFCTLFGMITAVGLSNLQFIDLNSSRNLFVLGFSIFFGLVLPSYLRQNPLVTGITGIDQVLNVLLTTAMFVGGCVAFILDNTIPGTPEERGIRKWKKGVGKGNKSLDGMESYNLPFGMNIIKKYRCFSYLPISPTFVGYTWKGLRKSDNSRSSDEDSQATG
UniProt O76082: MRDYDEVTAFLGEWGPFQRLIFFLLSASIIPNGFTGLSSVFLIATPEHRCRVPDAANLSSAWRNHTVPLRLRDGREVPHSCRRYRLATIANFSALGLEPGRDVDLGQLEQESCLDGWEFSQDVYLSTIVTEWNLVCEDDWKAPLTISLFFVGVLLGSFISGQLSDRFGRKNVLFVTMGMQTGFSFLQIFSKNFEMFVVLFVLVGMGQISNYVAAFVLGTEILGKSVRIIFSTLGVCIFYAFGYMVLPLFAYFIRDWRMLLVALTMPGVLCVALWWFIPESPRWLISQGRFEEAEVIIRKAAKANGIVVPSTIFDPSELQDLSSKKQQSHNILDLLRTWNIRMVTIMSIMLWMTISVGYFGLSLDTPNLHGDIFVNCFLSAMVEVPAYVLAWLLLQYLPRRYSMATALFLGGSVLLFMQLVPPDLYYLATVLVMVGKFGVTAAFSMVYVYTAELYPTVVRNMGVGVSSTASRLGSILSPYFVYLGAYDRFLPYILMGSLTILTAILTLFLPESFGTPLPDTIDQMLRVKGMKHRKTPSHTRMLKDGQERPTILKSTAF
UniProt P50443: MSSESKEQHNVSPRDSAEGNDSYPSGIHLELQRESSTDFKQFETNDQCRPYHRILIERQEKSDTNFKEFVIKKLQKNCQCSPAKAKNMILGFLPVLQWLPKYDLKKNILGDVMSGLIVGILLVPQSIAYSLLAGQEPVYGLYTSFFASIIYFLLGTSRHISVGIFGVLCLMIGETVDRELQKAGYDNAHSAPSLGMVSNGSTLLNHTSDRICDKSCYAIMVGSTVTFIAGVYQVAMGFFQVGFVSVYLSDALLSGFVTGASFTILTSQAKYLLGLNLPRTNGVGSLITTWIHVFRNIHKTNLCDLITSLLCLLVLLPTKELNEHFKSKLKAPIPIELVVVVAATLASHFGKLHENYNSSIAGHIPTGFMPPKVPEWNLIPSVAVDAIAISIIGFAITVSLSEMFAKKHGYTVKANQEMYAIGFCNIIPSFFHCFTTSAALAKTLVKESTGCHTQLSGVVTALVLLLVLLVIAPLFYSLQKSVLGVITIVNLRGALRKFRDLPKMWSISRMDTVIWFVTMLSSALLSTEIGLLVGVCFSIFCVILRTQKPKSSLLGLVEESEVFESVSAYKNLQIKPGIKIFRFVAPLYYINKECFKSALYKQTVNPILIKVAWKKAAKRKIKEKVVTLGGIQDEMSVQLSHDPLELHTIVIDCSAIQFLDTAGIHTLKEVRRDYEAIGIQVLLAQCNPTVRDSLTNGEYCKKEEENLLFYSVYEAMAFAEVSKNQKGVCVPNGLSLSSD
UniProt Q0GE19: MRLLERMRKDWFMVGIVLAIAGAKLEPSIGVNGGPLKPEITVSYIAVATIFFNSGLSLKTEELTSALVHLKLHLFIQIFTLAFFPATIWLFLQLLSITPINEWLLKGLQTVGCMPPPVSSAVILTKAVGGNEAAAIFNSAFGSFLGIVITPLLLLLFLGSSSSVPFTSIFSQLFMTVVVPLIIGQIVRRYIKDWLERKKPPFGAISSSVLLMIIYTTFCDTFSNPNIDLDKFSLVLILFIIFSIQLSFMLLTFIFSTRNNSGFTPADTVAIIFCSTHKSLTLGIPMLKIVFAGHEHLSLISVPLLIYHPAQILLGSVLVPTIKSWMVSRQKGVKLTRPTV

Key:
Test in all cases: log2 fold change, soluble protein after heating vs DMSO (PISA); higher = thermal stabilisation; K562 cells, 10 uM, 30 min; active = over 0.2 and 3.5 SD of the protein, either way, in both replicates (recomputed)
erlotinib = compound: C#Cc1cccc(Nc2ncnc3cc(OCCOC)c(OCCOC)cc23)c1 [erlotinib]
How it was run: (§1)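 K562 cells at 2×10^6 cells/mL were treated with 10 μM compound for 30 min. Aliquots were heated for 3 min across 48°C-58°C, pooled, and extracted in PBS with 0.5% NP-40 at 4°C; soluble protein was the supernatant after 21,000xg for 90 min. Soluble protein was quantified by TMTpro 16plex LC-MS/MS with channel sums equalised, and reported as log2 fold change in thermal stability against DMSO controls, with values from duplicates.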

[1] = compound: C/C(=N\NC(=O)C1=CC(=CC=C1)S(=O)(=O)N2CCOCC2)/C3=C(C=CC(=C3)Cl)O
How it was run: as §1

[2] = compound: C1=CC(=C(C=C1Cl)C2=NC3=NC=CN=C3C(=N2)NC4=CC=NC=C4)F
How it was run: as §1

[3] = compound: C1=CC(=CC=C1C2=NC3=C(N2)C=C(C=C3)C(=O)N)OC4=CC=C(C=C4)Cl
How it was run: as §1

[4] = compound: C1=CC2=C(C=CC(=C2)/C=C\3/C(=O)NC(=NCC4=CC=CS4)S3)N=C1
How it was run: as §1

[5] = compound: C1=CC2=NC=CN=C2C=C1/C=C/3\C(=O)NC(=O)S3
How it was run: as §1

[6] = compound: C1=CC=C(C=C1)C2=NC(=C(N2)C3=CC=NC=C3)C4=CC(=C(C=C4)Cl)O
How it was run: as §1

[7] = compound: C1=CC=C2C(=C1)C3=NNC4=CC=CC(=C43)C2=O
How it was run: as §1

[8] = compound: C1CCN(C1)C(=O)NC2=CC=CC(=C2)NC3=NC=C(C(=N3)NCCC4=CN=CN4)Br
How it was run: as §1

[9] = compound: C1CN(CCC1(CC2=CC=C(C=C2)Cl)N)C3=NC=NC4=C3C=CN4
How it was run: as §1

IRAK-1-4 Inhibitor I = compound: C1COCCN1CCN2C3=CC=CC=C3N=C2NC(=O)C4=CC(=CC=C4)[N+](=O)[O-] [IRAK-1-4 Inhibitor I]
How it was run: as §1

ibrutinib = compound: C=CC(=O)N1CCC[C@@H](n2nc(-c3ccc(Oc4ccccc4)cc3)c3c(N)ncnc32)C1 [ibrutinib]
How it was run: as §1

[10] = compound: CC(=O)c1cnc2ccc(-c3cc(Cl)c(O)c(Cl)c3)nc2c1N[C@H]1CC[C@H](CN(C)C)CC1
How it was run: as §1

ralimetinib = compound: CC(C)(C)Cn1c(N)nc2ccc(-c3[nH]c(C(C)(C)C)nc3-c3ccc(F)cc3)nc21 [ralimetinib]
How it was run: as §1

[11] = compound: CC(C)(O)CC(=O)NCCn1ccc2ncnc(Nc3ccc(Oc4cccc(C(F)(F)F)c4)c(Cl)c3)c21
How it was run: as §1

[12] = compound: CC(C)C1=C2N=C(C=C(N2N=C1)NCC3=CC=CC=C3)NCCCCCCN
How it was run: as §1

[13] = compound: CC(C)C[C@@H](C=O)NC(=O)[C@H](CC(C)C)NC(=O)[C@H](CC(C)C)NC(=O)OCc1ccccc1
How it was run: as §1

pinometostat = compound: CC(C)N(C[C@H]1O[C@@H](n2cnc3c(N)ncnc32)[C@H](O)[C@@H]1O)[C@H]1C[C@@H](CCc2nc3cc(C(C)(C)C)ccc3[nH]2)C1 [pinometostat]
How it was run: as §1

[14] = compound: CC1=C(C2=C(C=C1)C(=O)C3=CC=CC=C3N2CCCN)C
How it was run: as §1

[15] = compound: CC1=C(C(CC(=O)N1)C2=CC=C(C=C2)C(F)(F)F)C(=O)NC3=C(C=C4C(=C3)C=NN4)F
How it was run: as §1

Measured: log2 fold change

SLC44A2 isoform 2 (UniProt Q8IWA5)
active: [12] 0.296
inactive: erlotinib 0.059 | [1] 0.028 | [2] -0.059 | [3] -0.054 | [4] 0.019 | [5] -0.096 | [6] 0.073 | [7] -0.065 | [8] -0.105 | [9] 0.01 | IRAK-1-4 Inhibitor I 0.092 | ibrutinib 0.055 | [10] 0.034 | ralimetinib -0.128 | [11] -0.006 | [13] -0.047 | pinometostat 0.056 | [14] 0.034

SLC36A4 (UniProt Q6YBV0)
inactive: erlotinib 0.034 | [2] 0.274 | [3] 0.054 | [5] -0.023 | [6] -0.14 | ibrutinib 0.01 | ralimetinib -0.427 | [11] 0.044 | [12] -0.166 | [13] 0.092

SLC23A2 (UniProt Q9UGH3)
inactive: erlotinib 0.025 | [3] -0.065 | [5] 0.643 | [8] -0.044 | [9] 0.05 | IRAK-1-4 Inhibitor I 0.157 | ibrutinib -0.336 | [12] 0.016 | pinometostat 0.035 | [15] -0.113 | [14] 0.443

SLC22A5 isoform 3 (UniProt O76082)
inactive: [2] -0.01 | [5] 0.071 | IRAK-1-4 Inhibitor I -0.033 | ibrutinib -0.232 | [11] 0.003 | pinometostat -0.126 | [15] -0.024

SLC26A2 (UniProt P50443)
inactive: [2] -0.052 | IRAK-1-4 Inhibitor I -0.072 | [11] -0.317 | pinometostat 0.139 | [15] 0.142

SLC10A7 isoform 1 (UniProt Q0GE19)
inactive: erlotinib -0.095 | [1] 0.123 | [3] 0.034 | [4] 0.054 | [5] 0.036 | [6] -0.105 | [7] -0.106 | [8] -0.093 | [9] 0.099 | ibrutinib 0.055 | [10] -0.012 | ralimetinib 0.035 | [12] 0.018 | [13] 0 | [15] 0.177 | [14] -0.003
